Measurements reported in the supplement of paper PMC4604168 (melanoma cell lines).
This is one part of the list. Repeats are few or missing, and single values can be far off.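 Cells were imaged in 1,536-well plates, and nuclei stained with an antibody against cleaved PARP were counted against all DNA-stained nuclei to give the apoptosis fraction. Screening doses were chosen to leave most cells alive, and resting and induced cleaved-PARP levels differ strongly between cell lines.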

Tested on: MEL-HO
Assay: cleaved PARP positive nuclei fraction relative to DMSO control; melanoma cells; higher = more apoptosis
Conditions: library dose: low library concentration; 72 h

Compound	cleaved PARP positive nuclei fraction
COc1ccc(C2=N[C@@H](c3ccc(Cl)cc3)[C@@H](c3ccc(Cl)cc3)N2C(=O)N2CCNC(=O)C2)c(OC(C)C)c1 [Nutlin-3] + C=CCn1c(=O)c2cnc(Nc3ccc(N4CCN(C)CC4)cc3)nc2n1-c1cccc(C(C)(C)O)n1 [MK1775] (first compound 0.1 µM, partner dose 0.02 µM)	66.6%
Cn1sc(=O)n(Cc2ccccc2)c1=O + CO[C@@H]1[C@H](N(C)C(=O)c2ccccc2)C[C@H]2O[C@]1(C)n1c3ccccc3c3c4c(c5c6ccccc6n2c5c31)C(=O)NC4 [Midostaurin] (first compound 0.4 µM, partner dose 0.08 µM)	196%
Cn1cnc2c(F)c(Nc3ccc(Br)cc3Cl)c(C(=O)NOCCO)cc21 [selumetinib] + Cc1cc(N2CCOCC2)cc2[nH]c(-c3c(NC[C@@H](O)c4cccc(Cl)c4)cc[nH]c3=O)nc12 [BMS536924] (first compound 0.015 µM, partner dose 0.2 µM)	295%
CC(=O)O[C@@]12CO[C@@H]1C[C@H](O)[C@@]1(C)C(=O)[C@H](O)C3=C(C)[C@@H](OC(=O)[C@H](O)[C@@H](NC(=O)OC(C)(C)C)c4ccccc4)C[C@@](O)([C@@H](OC(=O)c4ccccc4)[C@H]21)C3(C)C [Docetaxel] + O=C(CCCCCCC(=O)Nc1ccccc1)NO [vorinostat] (first compound 0.0001 µM, partner dose 0.08 µM)	58.2%
C[C@]1(O)C[C@@H](c2nc(-c3ccc4ccc(-c5ccccc5)nc4c3)c3c(N)nccn32)C1 + CO[C@@H]1[C@H](N(C)C(=O)c2ccccc2)C[C@H]2O[C@]1(C)n1c3ccccc3c3c4c(c5c6ccccc6n2c5c31)C(=O)NC4 [Midostaurin] (first compound 0.4 µM, partner dose 0.08 µM)	240%
CS(=O)(=O)c1ccc(C(=O)Nc2ccc(Cl)c(-c3ccccn3)c2)c(Cl)c1 [vismodegib] + NC(=O)Nc1cc(-c2cccc(F)c2)sc1C(=O)N[C@H]1CCCNC1 [AZD7762] (first compound 1 µM, partner dose 0.02 µM)	186%
CC(=O)O[C@@]12CO[C@@H]1C[C@H](O)[C@@]1(C)C(=O)[C@H](O)C3=C(C)[C@@H](OC(=O)[C@H](O)[C@@H](NC(=O)OC(C)(C)C)c4ccccc4)C[C@@](O)([C@@H](OC(=O)c4ccccc4)[C@H]21)C3(C)C [Docetaxel] + CO[C@@H]1[C@H](N(C)C(=O)c2ccccc2)C[C@H]2O[C@]1(C)n1c3ccccc3c3c4c(c5c6ccccc6n2c5c31)C(=O)NC4 [Midostaurin] (first compound 0.0001 µM, partner dose 0.08 µM)	109%
CC(=O)O[C@@]12CO[C@@H]1C[C@H](O)[C@@]1(C)C(=O)[C@H](O)C3=C(C)[C@@H](OC(=O)[C@H](O)[C@@H](NC(=O)OC(C)(C)C)c4ccccc4)C[C@@](O)([C@@H](OC(=O)c4ccccc4)[C@H]21)C3(C)C [Docetaxel] + Cc1ccc(NC(=O)c2cccc(N(C)C)c2)cc1NC(=O)c1ccc(O)cc1 [ZM336372] (first compound 0.0001 µM, partner dose 2 µM)	112%
Cn1sc(=O)n(Cc2ccccc2)c1=O + NC(=O)Nc1cc(-c2cccc(F)c2)sc1C(=O)N[C@H]1CCCNC1 [AZD7762] (first compound 0.4 µM, partner dose 0.02 µM)	82.9%
C[C@@H](N)c1ccc(C(=O)Nc2ccnc3[nH]ccc23)cc1 + O=C(O)c1ccc(-c2c[nH]c3ncc(-c4ccccc4)cc23)cc1C1CCCC1 [GSK650394] (first compound 0.4 µM, partner dose 0.16 µM)	101%
NC1(c2ccc(-c3nc4ccn5c(=O)[nH]nc5c4cc3-c3ccccc3)cc2)CCC1 + NC(=O)Nc1cc(-c2cccc(F)c2)sc1C(=O)N[C@H]1CCCNC1 [AZD7762] (first compound 0.4 µM, partner dose 0.02 µM)	75.7%
COc1ccc(C2=N[C@@H](c3ccc(Cl)cc3)[C@@H](c3ccc(Cl)cc3)N2C(=O)N2CCNC(=O)C2)c(OC(C)C)c1 [Nutlin-3] + COc1cc2c(Oc3ccc4[nH]c(C)cc4c3F)ncnc2cc1OCCCN1CCCC1 [cediranib] (first compound 0.1 µM, partner dose 0.4 µM)	404%
Cn1cnc2c(F)c(Nc3ccc(Br)cc3Cl)c(C(=O)NOCCO)cc21 [selumetinib] + CC1(C)NC(=O)N(c2ccc([N+](=O)[O-])c(C(F)(F)F)c2)C1=O [nilutamide] (first compound 0.015 µM, partner dose 1 µM)	89%
NC(=O)c1ccc(N(C(N)=O)c2c(F)cccc2F)nc1-c1ccc(F)cc1F + Cc1ccc(NC(=O)c2cccc(N(C)C)c2)cc1NC(=O)c1ccc(O)cc1 [ZM336372] (first compound 0.4 µM, partner dose 2 µM)	76.2%
CC1(C)CCC(c2ccc(Cl)cc2)=C(CN2CCN(c3ccc(C(=O)NS(=O)(=O)c4ccc(N[C@H](CCN5CCOCC5)CSc5ccccc5)c(S(=O)(=O)C(F)(F)F)c4)cc3)CC2)C1 + CN(NC(=O)CC(=O)NN(C)C(=S)c1ccccc1)C(=S)c1ccccc1 [STA4783] (first compound 0.4 µM, partner dose 0.006 µM)	34.4%
Cn1cnc2c(F)c(Nc3ccc(Br)cc3Cl)c(C(=O)NOCCO)cc21 [selumetinib] + NCC(=O)Nc1ccc(-n2nc(C(F)(F)F)cc2-c2ccc3c(ccc4ccccc43)c2)cc1 [OSU03012] (first compound 0.015 µM, partner dose 1 µM)	183%
CC1(C)CCC(c2ccc(Cl)cc2)=C(CN2CCN(c3ccc(C(=O)NS(=O)(=O)c4ccc(N[C@H](CCN5CCOCC5)CSc5ccccc5)c(S(=O)(=O)C(F)(F)F)c4)cc3)CC2)C1 + CC1(C)NC(=O)N(c2ccc([N+](=O)[O-])c(C(F)(F)F)c2)C1=O [nilutamide] (first compound 0.4 µM, partner dose 1 µM)	174%
CC1(C)CCC(c2ccc(Cl)cc2)=C(CN2CCN(c3ccc(C(=O)NS(=O)(=O)c4ccc(N[C@H](CCN5CCOCC5)CSc5ccccc5)c(S(=O)(=O)C(F)(F)F)c4)cc3)CC2)C1 + COc1cc(Nc2ncc(F)c(Nc3ccc4c(n3)NC(=O)C(C)(C)O4)n2)cc(OC)c1OC [Tamatinib] (first compound 0.4 µM, partner dose 0.4 µM)	47.1%
CCCCCCCCc1ccc(CCC(N)(CO)CO)cc1 [fingolimod] + OCCn1cc(-c2cnc3nnn(Cc4ccc5ncccc5c4)c3n2)cn1 [PF04217903] (first compound 2 µM, partner dose 1 µM)	47.5%
C[C@]1(O)C[C@@H](c2nc(-c3ccc4ccc(-c5ccccc5)nc4c3)c3c(N)nccn32)C1 + COc1cc(Nc2ncc(F)c(Nc3ccc4c(n3)NC(=O)C(C)(C)O4)n2)cc(OC)c1OC [Tamatinib] (first compound 0.4 µM, partner dose 0.4 µM)	156%
CCN(CC)CCNC(=O)c1c(C)[nH]c(/C=C2\C(=O)Nc3ccc(F)cc32)c1C [sunitinib] + O=C(Nc1cccc(Cl)c1)Nc1ncc(CCNc2ncnc3ccsc23)s1 [SNS314] (first compound 0.4 µM, partner dose 0.0008 µM)	67.2%
NC1(c2ccc(-c3nc4ccn5c(=O)[nH]nc5c4cc3-c3ccccc3)cc2)CCC1 + O=C(Nc1cccc(Cl)c1)Nc1ncc(CCNc2ncnc3ccsc23)s1 [SNS314] (first compound 0.4 µM, partner dose 0.0008 µM)	81.6%
C[C@@H](N)c1ccc(C(=O)Nc2ccnc3[nH]ccc23)cc1 + C[C@@H]1CCN(C(=O)CC#N)C[C@@H]1N(C)c1ncnc2[nH]ccc12 [CP690550] (first compound 0.4 µM, partner dose 1 µM)	119%
CN(c1ncccc1CNc1nc(Nc2ccc3c(c2)CC(=O)N3)ncc1C(F)(F)F)S(C)(=O)=O + NC(=O)Nc1cc(-c2cccc(F)c2)sc1C(=O)N[C@H]1CCCNC1 [AZD7762] (first compound 0.08 µM, partner dose 0.02 µM)	155%
C[C@@H](N)c1ccc(C(=O)Nc2ccnc3[nH]ccc23)cc1 + Cc1cc(N2CCOCC2)cc2[nH]c(-c3c(NC[C@@H](O)c4cccc(Cl)c4)cc[nH]c3=O)nc12 [BMS536924] (first compound 0.4 µM, partner dose 0.2 µM)	86.9%
NC1(c2ccc(-c3nc4ccn5c(=O)[nH]nc5c4cc3-c3ccccc3)cc2)CCC1 + CC(C)(C)c1cnc(CSc2cnc(NC(=O)C3CCNCC3)s2)o1 [SNS-032] (first compound 0.4 µM, partner dose 0.01 µM)	257%
C[C@]1(O)C[C@@H](c2nc(-c3ccc4ccc(-c5ccccc5)nc4c3)c3c(N)nccn32)C1 + NC(=O)Nc1cc(-c2cccc(F)c2)sc1C(=O)N[C@H]1CCCNC1 [AZD7762] (first compound 0.4 µM, partner dose 0.02 µM)	88.2%
CCN(CC)CCNC(=O)c1c(C)[nH]c(/C=C2\C(=O)Nc3ccc(F)cc32)c1C [sunitinib] + C=CCn1c(=O)c2cnc(Nc3ccc(N4CCN(C)CC4)cc3)nc2n1-c1cccc(C(C)(C)O)n1 [MK1775] (first compound 0.4 µM, partner dose 0.02 µM)	39.2%

Exported with bars between the fields: part of the list above.
Compound | cleaved PARP positive nuclei fraction
CC1(C)CCC(c2ccc(Cl)cc2)=C(CN2CCN(c3ccc(C(=O)NS(=O)(=O)c4ccc(N[C@H](CCN5CCOCC5)CSc5ccccc5)c(S(=O)(=O)C(F)(F)F)c4)cc3)CC2)C1 + CN(NC(=O)CC(=O)NN(C)C(=S)c1ccccc1)C(=S)c1ccccc1 [STA4783] (first compound 0.4 µM, partner dose 0.006 µM) | 34.4%
Cn1cnc2c(F)c(Nc3ccc(Br)cc3Cl)c(C(=O)NOCCO)cc21 [selumetinib] + NCC(=O)Nc1ccc(-n2nc(C(F)(F)F)cc2-c2ccc3c(ccc4ccccc43)c2)cc1 [OSU03012] (first compound 0.015 µM, partner dose 1 µM) | 183%
CC1(C)CCC(c2ccc(Cl)cc2)=C(CN2CCN(c3ccc(C(=O)NS(=O)(=O)c4ccc(N[C@H](CCN5CCOCC5)CSc5ccccc5)c(S(=O)(=O)C(F)(F)F)c4)cc3)CC2)C1 + CC1(C)NC(=O)N(c2ccc([N+](=O)[O-])c(C(F)(F)F)c2)C1=O [nilutamide] (first compound 0.4 µM, partner dose 1 µM) | 174%
CC1(C)CCC(c2ccc(Cl)cc2)=C(CN2CCN(c3ccc(C(=O)NS(=O)(=O)c4ccc(N[C@H](CCN5CCOCC5)CSc5ccccc5)c(S(=O)(=O)C(F)(F)F)c4)cc3)CC2)C1 + COc1cc(Nc2ncc(F)c(Nc3ccc4c(n3)NC(=O)C(C)(C)O4)n2)cc(OC)c1OC [Tamatinib] (first compound 0.4 µM, partner dose 0.4 µM) | 47.1%
CCCCCCCCc1ccc(CCC(N)(CO)CO)cc1 [fingolimod] + OCCn1cc(-c2cnc3nnn(Cc4ccc5ncccc5c4)c3n2)cn1 [PF04217903] (first compound 2 µM, partner dose 1 µM) | 47.5%
C[C@]1(O)C[C@@H](c2nc(-c3ccc4ccc(-c5ccccc5)nc4c3)c3c(N)nccn32)C1 + COc1cc(Nc2ncc(F)c(Nc3ccc4c(n3)NC(=O)C(C)(C)O4)n2)cc(OC)c1OC [Tamatinib] (first compound 0.4 µM, partner dose 0.4 µM) | 156%
CCN(CC)CCNC(=O)c1c(C)[nH]c(/C=C2\C(=O)Nc3ccc(F)cc32)c1C [sunitinib] + O=C(Nc1cccc(Cl)c1)Nc1ncc(CCNc2ncnc3ccsc23)s1 [SNS314] (first compound 0.4 µM, partner dose 0.0008 µM) | 67.2%
